Measured values reported in the supplement of paper PMC10849652.
The list shows a part of the results.

Chains of the proteins cited; added tags and fusions are not shown. Lines headed by an entry give the natural chain unless they say otherwise; changes in a name come on top.
UniProt Q96FF9: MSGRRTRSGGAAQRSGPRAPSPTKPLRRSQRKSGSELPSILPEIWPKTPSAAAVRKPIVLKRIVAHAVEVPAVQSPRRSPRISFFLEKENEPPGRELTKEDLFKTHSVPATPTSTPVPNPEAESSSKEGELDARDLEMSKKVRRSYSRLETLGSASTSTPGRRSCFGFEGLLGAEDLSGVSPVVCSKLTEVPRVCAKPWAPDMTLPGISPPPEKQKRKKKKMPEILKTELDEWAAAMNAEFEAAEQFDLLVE
UniProt Q6ZTR5: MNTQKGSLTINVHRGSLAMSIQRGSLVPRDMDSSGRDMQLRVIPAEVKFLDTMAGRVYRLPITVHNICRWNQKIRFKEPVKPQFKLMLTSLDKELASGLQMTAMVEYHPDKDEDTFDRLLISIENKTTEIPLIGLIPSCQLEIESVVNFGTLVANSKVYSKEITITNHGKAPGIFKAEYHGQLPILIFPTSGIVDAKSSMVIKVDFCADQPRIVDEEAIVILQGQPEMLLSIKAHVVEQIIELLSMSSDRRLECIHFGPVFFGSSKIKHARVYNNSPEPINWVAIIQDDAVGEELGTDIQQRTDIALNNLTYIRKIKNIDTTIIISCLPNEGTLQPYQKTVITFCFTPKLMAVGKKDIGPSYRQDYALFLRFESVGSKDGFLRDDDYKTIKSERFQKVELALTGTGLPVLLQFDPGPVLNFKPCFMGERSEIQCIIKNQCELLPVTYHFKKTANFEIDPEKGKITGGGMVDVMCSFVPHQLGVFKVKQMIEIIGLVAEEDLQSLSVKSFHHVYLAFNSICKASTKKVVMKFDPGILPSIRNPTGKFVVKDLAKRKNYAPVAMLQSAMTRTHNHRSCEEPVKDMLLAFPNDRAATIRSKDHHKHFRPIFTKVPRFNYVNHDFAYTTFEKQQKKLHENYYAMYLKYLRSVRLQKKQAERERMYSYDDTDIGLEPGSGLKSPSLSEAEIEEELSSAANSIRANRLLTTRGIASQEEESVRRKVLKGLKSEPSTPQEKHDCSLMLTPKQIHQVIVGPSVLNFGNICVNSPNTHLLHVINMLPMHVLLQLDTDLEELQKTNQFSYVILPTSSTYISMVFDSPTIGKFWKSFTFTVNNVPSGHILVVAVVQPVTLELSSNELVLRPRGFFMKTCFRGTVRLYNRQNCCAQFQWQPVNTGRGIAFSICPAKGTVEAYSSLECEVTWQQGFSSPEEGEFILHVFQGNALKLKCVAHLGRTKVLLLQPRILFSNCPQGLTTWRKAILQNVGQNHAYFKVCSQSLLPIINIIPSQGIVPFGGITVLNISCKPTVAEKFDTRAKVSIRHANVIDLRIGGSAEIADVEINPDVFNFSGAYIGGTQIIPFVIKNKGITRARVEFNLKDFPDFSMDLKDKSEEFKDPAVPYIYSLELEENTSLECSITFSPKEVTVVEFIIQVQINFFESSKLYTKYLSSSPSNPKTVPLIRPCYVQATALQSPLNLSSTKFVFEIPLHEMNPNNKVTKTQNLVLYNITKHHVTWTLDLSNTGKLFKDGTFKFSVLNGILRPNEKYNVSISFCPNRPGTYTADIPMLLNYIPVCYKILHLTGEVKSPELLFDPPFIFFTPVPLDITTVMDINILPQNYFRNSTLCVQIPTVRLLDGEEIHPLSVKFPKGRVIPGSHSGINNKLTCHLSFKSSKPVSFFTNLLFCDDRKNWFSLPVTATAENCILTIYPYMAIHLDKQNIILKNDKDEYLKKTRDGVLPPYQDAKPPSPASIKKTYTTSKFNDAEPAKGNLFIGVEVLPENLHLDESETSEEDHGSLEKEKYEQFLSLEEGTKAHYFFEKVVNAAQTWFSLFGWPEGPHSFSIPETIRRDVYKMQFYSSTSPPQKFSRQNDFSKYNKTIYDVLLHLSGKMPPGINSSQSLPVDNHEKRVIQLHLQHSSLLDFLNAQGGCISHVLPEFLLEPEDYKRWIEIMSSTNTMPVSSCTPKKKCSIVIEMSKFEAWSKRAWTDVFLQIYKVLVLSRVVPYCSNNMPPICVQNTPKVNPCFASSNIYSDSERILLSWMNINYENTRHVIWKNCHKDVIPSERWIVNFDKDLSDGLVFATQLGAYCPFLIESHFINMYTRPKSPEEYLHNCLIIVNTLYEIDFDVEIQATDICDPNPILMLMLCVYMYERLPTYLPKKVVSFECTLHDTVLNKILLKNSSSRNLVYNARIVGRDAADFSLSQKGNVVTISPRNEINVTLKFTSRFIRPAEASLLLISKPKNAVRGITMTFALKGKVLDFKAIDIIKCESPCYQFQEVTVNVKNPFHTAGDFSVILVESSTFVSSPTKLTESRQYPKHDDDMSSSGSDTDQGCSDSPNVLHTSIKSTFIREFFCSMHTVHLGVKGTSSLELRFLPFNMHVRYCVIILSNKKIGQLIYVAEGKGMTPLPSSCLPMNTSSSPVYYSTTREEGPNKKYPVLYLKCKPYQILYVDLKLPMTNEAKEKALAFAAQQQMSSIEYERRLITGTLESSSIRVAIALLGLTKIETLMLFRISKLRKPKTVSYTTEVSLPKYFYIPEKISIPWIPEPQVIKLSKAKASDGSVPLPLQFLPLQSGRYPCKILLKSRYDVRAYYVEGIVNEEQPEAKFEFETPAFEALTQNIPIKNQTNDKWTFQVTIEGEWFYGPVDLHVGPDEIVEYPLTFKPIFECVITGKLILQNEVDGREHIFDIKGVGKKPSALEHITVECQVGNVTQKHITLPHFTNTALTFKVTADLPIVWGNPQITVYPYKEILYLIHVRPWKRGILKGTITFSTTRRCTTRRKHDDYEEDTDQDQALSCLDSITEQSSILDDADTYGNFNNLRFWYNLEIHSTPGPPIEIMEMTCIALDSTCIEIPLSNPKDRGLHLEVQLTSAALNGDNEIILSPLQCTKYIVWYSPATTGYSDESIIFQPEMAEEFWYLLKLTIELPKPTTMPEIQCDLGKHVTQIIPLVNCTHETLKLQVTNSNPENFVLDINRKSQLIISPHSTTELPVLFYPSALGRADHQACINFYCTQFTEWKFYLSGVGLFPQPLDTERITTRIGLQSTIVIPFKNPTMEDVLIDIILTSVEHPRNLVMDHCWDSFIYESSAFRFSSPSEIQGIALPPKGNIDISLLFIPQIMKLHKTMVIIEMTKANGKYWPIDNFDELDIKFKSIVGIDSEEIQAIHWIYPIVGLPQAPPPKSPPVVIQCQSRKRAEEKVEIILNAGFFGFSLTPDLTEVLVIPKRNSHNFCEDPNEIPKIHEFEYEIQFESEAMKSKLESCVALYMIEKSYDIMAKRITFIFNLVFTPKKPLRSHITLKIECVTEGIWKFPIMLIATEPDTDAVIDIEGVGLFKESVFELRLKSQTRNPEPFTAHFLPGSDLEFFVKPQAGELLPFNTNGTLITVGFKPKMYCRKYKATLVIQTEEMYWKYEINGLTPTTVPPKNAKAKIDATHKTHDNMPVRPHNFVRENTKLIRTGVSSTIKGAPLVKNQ
UniProt Q9Y5S2: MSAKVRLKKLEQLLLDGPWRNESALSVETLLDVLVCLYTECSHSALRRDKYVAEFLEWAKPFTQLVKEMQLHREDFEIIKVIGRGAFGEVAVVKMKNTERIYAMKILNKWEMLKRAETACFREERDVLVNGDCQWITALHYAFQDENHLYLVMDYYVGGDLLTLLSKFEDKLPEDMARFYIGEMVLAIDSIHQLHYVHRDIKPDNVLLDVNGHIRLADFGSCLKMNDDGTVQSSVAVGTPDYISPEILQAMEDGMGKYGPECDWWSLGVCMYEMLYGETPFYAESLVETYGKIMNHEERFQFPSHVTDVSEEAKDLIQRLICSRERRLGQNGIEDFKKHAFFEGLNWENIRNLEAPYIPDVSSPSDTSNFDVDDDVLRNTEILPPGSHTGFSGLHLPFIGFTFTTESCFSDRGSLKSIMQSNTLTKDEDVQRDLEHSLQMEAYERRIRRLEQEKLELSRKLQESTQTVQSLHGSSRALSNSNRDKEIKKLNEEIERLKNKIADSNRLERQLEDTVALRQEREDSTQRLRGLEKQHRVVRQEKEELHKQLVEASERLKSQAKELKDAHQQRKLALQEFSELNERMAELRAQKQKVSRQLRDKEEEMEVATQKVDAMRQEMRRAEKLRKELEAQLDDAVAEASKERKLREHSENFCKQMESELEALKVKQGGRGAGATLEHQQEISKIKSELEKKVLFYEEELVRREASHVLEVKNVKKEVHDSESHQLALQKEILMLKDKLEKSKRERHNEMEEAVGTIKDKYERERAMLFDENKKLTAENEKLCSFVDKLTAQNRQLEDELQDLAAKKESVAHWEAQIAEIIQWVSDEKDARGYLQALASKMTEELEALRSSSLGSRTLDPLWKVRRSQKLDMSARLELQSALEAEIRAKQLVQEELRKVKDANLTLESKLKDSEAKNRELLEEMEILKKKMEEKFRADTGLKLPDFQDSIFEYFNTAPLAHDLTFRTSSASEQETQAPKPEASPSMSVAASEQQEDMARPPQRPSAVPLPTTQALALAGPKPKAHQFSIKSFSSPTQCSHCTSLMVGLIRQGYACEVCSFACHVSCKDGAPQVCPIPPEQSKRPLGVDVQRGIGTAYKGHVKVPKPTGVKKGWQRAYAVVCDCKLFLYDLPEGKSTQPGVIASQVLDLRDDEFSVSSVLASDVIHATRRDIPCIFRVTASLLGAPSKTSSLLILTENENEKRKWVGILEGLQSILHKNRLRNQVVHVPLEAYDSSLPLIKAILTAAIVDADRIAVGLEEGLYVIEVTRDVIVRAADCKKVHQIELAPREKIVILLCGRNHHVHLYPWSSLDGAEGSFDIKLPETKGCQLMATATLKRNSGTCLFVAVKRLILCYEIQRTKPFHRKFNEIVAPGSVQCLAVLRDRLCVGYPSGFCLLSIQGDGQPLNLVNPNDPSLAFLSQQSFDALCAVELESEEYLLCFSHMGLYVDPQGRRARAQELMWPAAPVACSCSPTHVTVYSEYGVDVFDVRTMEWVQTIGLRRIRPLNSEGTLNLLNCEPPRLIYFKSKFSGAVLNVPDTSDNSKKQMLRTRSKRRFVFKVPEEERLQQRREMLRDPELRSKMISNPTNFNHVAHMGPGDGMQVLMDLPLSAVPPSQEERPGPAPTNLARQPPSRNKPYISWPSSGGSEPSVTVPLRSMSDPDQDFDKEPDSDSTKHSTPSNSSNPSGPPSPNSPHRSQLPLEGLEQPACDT
UniProt Q69YH5: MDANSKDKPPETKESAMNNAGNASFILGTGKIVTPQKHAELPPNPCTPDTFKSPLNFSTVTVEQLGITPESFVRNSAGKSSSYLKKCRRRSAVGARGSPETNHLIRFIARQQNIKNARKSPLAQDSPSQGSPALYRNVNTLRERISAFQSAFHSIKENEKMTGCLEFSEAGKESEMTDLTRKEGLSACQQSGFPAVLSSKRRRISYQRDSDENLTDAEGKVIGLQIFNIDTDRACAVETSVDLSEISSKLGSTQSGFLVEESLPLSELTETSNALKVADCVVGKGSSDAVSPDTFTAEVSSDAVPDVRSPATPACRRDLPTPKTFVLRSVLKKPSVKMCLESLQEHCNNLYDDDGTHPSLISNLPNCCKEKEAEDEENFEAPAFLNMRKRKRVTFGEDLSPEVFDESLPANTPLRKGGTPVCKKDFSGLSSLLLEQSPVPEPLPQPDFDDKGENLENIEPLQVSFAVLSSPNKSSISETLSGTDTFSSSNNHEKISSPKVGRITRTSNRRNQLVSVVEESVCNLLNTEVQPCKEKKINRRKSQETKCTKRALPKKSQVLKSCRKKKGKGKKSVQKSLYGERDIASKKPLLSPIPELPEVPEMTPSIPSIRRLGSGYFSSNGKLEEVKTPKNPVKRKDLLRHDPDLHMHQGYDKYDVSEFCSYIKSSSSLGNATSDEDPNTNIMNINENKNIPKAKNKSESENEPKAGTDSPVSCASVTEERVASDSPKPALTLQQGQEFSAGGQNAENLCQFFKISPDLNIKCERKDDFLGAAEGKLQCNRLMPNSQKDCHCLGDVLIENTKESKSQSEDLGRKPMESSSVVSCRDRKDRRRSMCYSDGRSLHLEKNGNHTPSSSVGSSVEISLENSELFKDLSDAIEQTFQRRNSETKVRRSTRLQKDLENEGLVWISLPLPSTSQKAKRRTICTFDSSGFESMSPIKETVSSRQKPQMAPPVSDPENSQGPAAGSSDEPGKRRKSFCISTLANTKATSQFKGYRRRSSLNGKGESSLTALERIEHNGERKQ
UniProt P23528, whole entry, looked up: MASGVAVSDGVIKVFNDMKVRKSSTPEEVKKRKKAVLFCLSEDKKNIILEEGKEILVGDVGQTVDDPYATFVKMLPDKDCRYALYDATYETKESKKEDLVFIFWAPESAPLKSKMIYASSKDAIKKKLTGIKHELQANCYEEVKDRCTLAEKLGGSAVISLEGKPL
UniProt P14209: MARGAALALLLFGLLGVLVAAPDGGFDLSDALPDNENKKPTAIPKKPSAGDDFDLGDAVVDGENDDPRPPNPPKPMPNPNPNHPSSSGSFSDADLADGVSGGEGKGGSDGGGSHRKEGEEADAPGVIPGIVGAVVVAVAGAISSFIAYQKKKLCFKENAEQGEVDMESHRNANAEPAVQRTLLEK

compound: C1CCN(C1)C(=O)NC2=CC=CC(=C2)NC3=NC=C(C(=N3)NCCC4=CN=CN4)Br; test: log2 fold change, soluble protein after heating vs DMSO (PISA); higher = thermal stabilisation; K562 lysate, 10 uM; active = over 0.2 and 3.5 SD of the protein, either way, in both replicates (recomputed)
Summary of the method: (§1)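 Pellets of K562 cells were dounce-homogenised in PBS pH 7.4 with 1 mM MgCl2, and the crude extract was held at 1 mg/mL protein for a 30 min treatment with 10 μM compound. Aliquots were heated for 3 min over 48°C-58°C and pooled before NP-40 was added to 0.5% at 4°C. The supernatant from 21,000xg for 90 min was quantified by TMTpro 16plex LC-MS/MS with channel sums equalised. Values are reported from duplicates as log-two fold change in thermal stability relative to solvent controls.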

log2 fold change, inactive:
CDCA5 (UniProt Q96FF9) -0.031
CFAP47 (UniProt Q6ZTR5) -0.166
CDC42BPB (UniProt Q9Y5S2) -0.009
CEP250 (UniProt Q9BV73) 0.181
CDK2 (UniProt P24941) 0.135
CDCA2 (UniProt Q69YH5) -0.131

compound: C1CN(CCC1(CC2=CC=C(C=C2)Cl)N)C3=NC=NC4=C3C=CN4; test: as above
Summary of the method: as §1

log2 fold change, inactive:
CDC40 (UniProt O60508) -0.035
CEP41 (UniProt Q9BYV8) 0.03
CENPP (UniProt Q6IPU0) -0.007
CDC42BPA isoform 6 (UniProt Q5VT25) -0.006
CFAP410 (UniProt O43822) -0.052
CDK4 (UniProt P11802) 0.049
CDKN1C (UniProt P49918) 0.009
CDCA8 (UniProt Q53HL2) -0.054
CENPJ (UniProt Q9HC77) 0.136
CDC42EP4 (UniProt Q9H3Q1) 0.054
CEBPZOS (UniProt A8MTT3) 0.005
CEP85 isoform 2 (UniProt Q6P2H3) 0.027
CEP192 (UniProt Q8TEP8) -0.036
CDR2L (UniProt Q86X02) -0.064
CDC7 (UniProt O00311) -0.096
CDR2 (UniProt Q01850) -0.027
CDSN (UniProt Q15517) -0.354
CDYL (UniProt Q9Y232) 0.029
CDK5 (UniProt Q00535) 0.004
CEP120 (UniProt Q8N960) 0.215
CELF2 isoform 3 (UniProt O95319) 0.041
CFL1 (UniProt P23528) -0.007
CEBPB (UniProt P17676) -0.002
CDCA5 (UniProt Q96FF9) -0.006
CFAP47 (UniProt Q6ZTR5) -0.174
CDC42BPB (UniProt Q9Y5S2) -0.089
CEP250 (UniProt Q9BV73) 0.091
CDK2 (UniProt P24941) 0.004
CDCA2 (UniProt Q69YH5) 0.056

compound: C1COCCN1CCN2C3=CC=CC=C3N=C2NC(=O)C4=CC(=CC=C4)[N+](=O)[O-] [IRAK-1-4 Inhibitor I]; test: as above
Summary of the method: as §1

log2 fold change, inactive:
CDC40 (UniProt O60508) 0.117
CENPP (UniProt Q6IPU0) 0.066
CDK8 (UniProt P49336) 0.029
CDC42BPA isoform 6 (UniProt Q5VT25) -0.038
CD99 (UniProt P14209) 0.033
CFAP410 (UniProt O43822) 0.103
CDK4 (UniProt P11802) -0.002
CDKN1C (UniProt P49918) 0.069
CENPJ (UniProt Q9HC77) -0.011
CEP83 (UniProt Q9Y592) 0.086
CDC42EP4 (UniProt Q9H3Q1) -0.055
CEBPZOS (UniProt A8MTT3) -0.015
CEP85 isoform 2 (UniProt Q6P2H3) 0.003
CEP192 (UniProt Q8TEP8) 0.023
CDR2L (UniProt Q86X02) 0.078
CD82 (UniProt P27701) -0.004
CDC7 (UniProt O00311) 0.032
CDC37 (UniProt K7EKQ2) 0.079
CDR2 (UniProt Q01850) -0.04
CDSN (UniProt Q15517) 0.248
CDYL (UniProt Q9Y232) 0
CDK5 (UniProt Q00535) 0.033
CEP120 (UniProt Q8N960) 0.018
CFAP97 (UniProt Q9P2B7) 0.024
CELF2 isoform 3 (UniProt O95319) -0.029
CFL1 (UniProt P23528) -0.002
CEBPB (UniProt P17676) 0.052
CDCA5 (UniProt Q96FF9) 0.016
CFAP47 (UniProt Q6ZTR5) 0.154
CDC42BPB (UniProt Q9Y5S2) 0.075
CEP250 (UniProt Q9BV73) -0.019
CDK2 (UniProt P24941) 0.014
CDCA2 (UniProt Q69YH5) 0.064
